# PubChem BioAssay AID2685 (National Center for Advancing Translational Sciences (NCATS), 2010)
# The other results are listed elsewhere or left out. Further columns of the screen follow, without active or inactive calls. The list favours compounds with an active or inconclusive main result. Potencies come from curve fits of mixed quality, noted in brackets.
# Experiment: qHTS Assay for Lipid Storage Modulators in Drosophila S3 Cells;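 as to cell number change: cells counted by Cell Tracker Red CMTPX staining in the red channel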
# Conditions: BODIPY lipid droplet fluorescence, 18-24 h; for cell number change: measured here: cell count max response, cells fed with added oleic acid
# Summary of the method: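 Drosophila S3 cells got compounds at several concentrations plus oleic acid (400 uM solution). Laser-scanning cytometry with 488 nm excitation read lipid droplets at 500-530 nm and cells at 575-640 nm. Percent activity was relative to 20 uM Triacsin C.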
# [1] = measured here: cell number channel AC50, cells fed with added oleic acid
# [2] = measured here: lipid fluorescence (Fed channel) AC50, cells fed with added oleic acid
SMILES,cell number change [%],AC50 [1],AC50 [2]
Cc1ccc(NC(=O)c2ccccc2NS(=O)(=O)c2ccc(Cl)s2)cc1,-16.7,"0.58 µM [falling, single point]",–
Cc1c(C(=O)CN2CCCC(C)(C)C2)c2ccccc2n1C,20.9,–,"0.0517 µM [rising, full curve, poor fit]"
CCC(=O)N1N=C(c2cccc(NS(C)(=O)=O)c2)CC1c1cccs1 (stereo not given),19.2,–,–
CCOC(=O)C1(P(=O)(c2ccc(Cl)cc2)c2ccc(Cl)cc2)CCC1,–,–,"0.58 µM [falling, single point]"
COC(=O)c1ccc(CSc2nc3ccc(C)cc3[nH]2)o1,–,–,"3.66 µM [rising, partial curve]"
COc1ccc(C2CC(=O)C(CS(=O)(=O)c3ccccc3)C(=O)C2)cc1 (stereo not given),2.04,–,"0.116 µM [rising, full curve, poor fit]"
COc1cc(C(C(=O)NC2CCCCC2)N(C(=O)c2snc(C(N)=O)c2N)c2ccc(C)cc2)ccc1O (stereo not given),21.4,–,"23.1 µM [rising, partial curve]"
CCOc1ccc(-c2cc(NC(=O)c3c(F)cccc3F)c(C(=O)O)s2)cc1,–,"6.51 µM [falling, single point]",–
CCN(CC)c1ccc(/C=C/C(=O)c2ccc(Br)cc2)cc1,-96.9,"20.6 µM [falling, single point]","20.6 µM [falling, single point]"
O=C(NCC1COc2ccccc2O1)c1ccc(-n2cncn2)c([N+](=O)[O-])c1 (stereo not given),-16.3,–,"29.1 µM [falling, single point]"
O=C(c1ccccc1)c1cnc(Nc2ccccc2Cl)s1,17.2,–,"29.1 µM [rising, single point]"
O=C(Nc1ccccc1C(=O)N1CCOCC1)c1ccco1,-41.2,"11.6 µM [falling, partial curve]","11.6 µM [falling, partial curve]"
Cc1ccc(Sc2ccc(S(=O)(=O)Nc3ccc(CC(=O)O)cc3)cc2)cc1C,1.46,–,–
O=C(O)CCCSc1nccn1-c1ccccc1,–,"3.26 µM [falling, partial curve, poor fit]",–
CSc1nc2[nH]c3c(c2c2nncn12)CC(C)(C)OC3,32.4,"1.64 µM [rising, partial curve, poor fit]","0.58 µM [rising, single point]"
COc1ccc(-n2ncc3c2CC(C)(C)CC3NC(=O)c2ccnn2C)cc1 (stereo not given),–,–,"18.4 µM [falling, partial curve]"
OCC[C@H]1C[C@@H](O)[C@H](O)[C@@]2(OCc3ccccc32)O1,6.67,–,"16.4 µM [rising, single point]"

# Two compounds from above, reduced to AC50 [1].
SMILES	AC50 [1]
CCOc1ccc(-c2cc(NC(=O)c3c(F)cccc3F)c(C(=O)O)s2)cc1	6.51 µM [falling, single point]
CCN(CC)c1ccc(/C=C/C(=O)c2ccc(Br)cc2)cc1	20.6 µM [falling, single point]
